Measured values reported in the supplement of paper PMC10849652.
Some of the results follow.

By UniProt entry, the sequences of proteins in these tests, tags left out. Where a name states a change or a piece, a line headed by the entry shows the natural chain unless it says otherwise.
UniProt Q9H9A6: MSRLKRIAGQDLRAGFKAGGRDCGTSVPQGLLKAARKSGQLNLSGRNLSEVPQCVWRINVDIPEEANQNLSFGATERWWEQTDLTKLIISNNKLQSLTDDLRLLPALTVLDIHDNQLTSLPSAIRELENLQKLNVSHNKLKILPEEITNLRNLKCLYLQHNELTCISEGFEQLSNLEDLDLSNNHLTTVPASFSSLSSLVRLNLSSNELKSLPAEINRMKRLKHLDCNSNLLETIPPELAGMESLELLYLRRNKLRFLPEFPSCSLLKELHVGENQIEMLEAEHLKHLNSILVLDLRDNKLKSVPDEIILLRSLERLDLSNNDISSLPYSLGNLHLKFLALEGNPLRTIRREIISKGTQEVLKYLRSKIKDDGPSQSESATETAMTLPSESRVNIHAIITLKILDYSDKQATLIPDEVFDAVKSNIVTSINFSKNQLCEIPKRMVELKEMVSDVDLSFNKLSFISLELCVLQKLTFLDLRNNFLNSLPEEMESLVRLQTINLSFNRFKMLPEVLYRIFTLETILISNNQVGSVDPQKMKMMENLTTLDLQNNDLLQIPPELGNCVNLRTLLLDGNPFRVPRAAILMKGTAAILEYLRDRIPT
UniProt P11279: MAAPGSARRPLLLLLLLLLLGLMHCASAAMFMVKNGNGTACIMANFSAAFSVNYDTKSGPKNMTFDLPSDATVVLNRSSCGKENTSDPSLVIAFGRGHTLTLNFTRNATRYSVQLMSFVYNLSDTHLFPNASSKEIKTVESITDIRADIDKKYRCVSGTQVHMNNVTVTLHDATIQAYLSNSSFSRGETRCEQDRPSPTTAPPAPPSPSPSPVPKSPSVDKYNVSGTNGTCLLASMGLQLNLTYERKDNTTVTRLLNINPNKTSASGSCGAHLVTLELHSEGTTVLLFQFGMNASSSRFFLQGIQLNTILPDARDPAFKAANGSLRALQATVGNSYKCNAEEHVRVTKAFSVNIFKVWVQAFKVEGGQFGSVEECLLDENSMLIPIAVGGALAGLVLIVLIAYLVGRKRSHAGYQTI
UniProt Q6ZN17: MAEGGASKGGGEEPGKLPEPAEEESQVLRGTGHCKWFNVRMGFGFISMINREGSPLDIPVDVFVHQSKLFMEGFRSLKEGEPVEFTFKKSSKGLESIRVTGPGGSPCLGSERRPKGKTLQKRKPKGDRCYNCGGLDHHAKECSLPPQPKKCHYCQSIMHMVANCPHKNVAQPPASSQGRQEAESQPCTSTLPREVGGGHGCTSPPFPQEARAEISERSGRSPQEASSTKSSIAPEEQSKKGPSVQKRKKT
UniProt Q53H82: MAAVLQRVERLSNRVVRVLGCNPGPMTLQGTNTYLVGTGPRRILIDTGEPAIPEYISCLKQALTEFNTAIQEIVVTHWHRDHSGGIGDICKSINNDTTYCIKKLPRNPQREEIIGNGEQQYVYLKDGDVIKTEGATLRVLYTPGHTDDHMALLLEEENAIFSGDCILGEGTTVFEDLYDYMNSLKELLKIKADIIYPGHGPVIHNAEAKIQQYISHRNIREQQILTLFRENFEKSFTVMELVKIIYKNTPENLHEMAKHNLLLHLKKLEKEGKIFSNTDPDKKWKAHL
UniProt Q96AG4: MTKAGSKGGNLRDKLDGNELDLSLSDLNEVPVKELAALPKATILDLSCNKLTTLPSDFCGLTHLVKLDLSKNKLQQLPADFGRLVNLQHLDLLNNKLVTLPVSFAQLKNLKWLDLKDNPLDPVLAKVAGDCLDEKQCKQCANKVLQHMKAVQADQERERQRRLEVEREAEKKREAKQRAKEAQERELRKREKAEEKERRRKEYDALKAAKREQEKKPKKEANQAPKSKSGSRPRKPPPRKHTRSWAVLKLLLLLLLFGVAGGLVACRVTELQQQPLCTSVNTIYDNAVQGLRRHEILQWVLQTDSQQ
UniProt Q9UIC8: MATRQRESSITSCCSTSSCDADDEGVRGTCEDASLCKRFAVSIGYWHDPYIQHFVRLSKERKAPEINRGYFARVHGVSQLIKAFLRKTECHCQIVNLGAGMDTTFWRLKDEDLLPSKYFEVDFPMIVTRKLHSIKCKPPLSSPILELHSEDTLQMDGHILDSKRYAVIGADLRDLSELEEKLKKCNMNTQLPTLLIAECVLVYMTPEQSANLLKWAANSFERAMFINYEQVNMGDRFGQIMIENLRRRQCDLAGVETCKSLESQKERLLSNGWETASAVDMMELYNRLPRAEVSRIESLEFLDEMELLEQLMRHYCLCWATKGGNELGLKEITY
UniProt P13796: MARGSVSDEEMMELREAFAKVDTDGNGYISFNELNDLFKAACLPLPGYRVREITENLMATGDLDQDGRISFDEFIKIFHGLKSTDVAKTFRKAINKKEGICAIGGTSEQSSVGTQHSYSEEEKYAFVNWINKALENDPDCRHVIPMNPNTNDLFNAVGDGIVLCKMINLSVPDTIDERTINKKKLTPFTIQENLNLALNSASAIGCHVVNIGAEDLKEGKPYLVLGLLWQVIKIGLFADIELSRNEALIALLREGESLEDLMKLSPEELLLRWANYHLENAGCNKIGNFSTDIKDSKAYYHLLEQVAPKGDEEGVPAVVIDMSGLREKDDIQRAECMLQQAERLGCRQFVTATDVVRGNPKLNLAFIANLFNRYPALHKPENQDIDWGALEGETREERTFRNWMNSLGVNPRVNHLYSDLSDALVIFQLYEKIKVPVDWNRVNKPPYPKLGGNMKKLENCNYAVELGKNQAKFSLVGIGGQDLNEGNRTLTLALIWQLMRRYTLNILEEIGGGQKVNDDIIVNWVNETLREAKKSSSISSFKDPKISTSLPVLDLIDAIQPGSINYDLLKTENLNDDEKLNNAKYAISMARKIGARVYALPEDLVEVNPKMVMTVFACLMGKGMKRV
UniProt Q9BRT6: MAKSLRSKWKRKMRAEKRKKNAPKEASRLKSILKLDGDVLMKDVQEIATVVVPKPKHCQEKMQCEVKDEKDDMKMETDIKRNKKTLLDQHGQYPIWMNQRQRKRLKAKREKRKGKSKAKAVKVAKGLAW
UniProt Q9H6V9: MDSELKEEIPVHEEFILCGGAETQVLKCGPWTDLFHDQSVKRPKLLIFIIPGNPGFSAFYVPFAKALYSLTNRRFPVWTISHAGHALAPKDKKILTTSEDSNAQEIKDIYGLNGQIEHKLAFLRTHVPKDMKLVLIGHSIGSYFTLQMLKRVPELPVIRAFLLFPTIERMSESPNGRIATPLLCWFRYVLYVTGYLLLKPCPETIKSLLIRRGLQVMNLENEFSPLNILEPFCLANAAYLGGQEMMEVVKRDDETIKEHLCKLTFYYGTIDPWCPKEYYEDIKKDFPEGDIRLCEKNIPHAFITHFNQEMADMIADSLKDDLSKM
UniProt Q8N1G4: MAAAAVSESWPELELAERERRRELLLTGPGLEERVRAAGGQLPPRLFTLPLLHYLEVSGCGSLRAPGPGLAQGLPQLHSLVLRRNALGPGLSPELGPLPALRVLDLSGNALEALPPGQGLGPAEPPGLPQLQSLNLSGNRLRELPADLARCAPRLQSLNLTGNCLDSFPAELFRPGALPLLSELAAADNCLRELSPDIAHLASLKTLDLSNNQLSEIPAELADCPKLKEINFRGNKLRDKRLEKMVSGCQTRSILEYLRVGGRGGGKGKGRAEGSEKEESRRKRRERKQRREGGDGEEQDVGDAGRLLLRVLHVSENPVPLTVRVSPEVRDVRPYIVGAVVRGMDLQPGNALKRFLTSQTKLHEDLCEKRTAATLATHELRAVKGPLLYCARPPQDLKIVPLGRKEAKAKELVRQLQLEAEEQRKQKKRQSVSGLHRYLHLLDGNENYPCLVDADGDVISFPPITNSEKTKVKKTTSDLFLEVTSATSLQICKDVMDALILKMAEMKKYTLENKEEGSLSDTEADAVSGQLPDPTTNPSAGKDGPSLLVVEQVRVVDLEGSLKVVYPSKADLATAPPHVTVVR
UniProt Q68DH5: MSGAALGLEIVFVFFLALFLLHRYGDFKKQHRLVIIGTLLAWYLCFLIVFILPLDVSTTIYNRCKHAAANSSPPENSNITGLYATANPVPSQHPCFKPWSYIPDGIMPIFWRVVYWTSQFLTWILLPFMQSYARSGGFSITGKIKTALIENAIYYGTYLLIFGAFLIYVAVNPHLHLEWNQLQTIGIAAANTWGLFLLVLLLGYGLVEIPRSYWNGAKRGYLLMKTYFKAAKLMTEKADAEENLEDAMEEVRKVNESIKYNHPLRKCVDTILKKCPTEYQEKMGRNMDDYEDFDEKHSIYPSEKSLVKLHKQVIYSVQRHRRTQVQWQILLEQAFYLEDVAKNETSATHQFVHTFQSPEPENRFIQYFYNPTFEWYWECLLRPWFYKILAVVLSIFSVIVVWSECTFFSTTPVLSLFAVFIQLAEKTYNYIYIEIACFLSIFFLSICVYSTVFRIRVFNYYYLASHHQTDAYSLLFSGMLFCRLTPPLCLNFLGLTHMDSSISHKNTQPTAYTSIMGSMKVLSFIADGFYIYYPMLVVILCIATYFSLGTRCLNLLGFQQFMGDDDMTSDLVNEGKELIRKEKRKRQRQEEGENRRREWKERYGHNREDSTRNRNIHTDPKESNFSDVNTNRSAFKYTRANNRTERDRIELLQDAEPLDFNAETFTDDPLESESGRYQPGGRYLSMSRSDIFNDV
UniProt P36776: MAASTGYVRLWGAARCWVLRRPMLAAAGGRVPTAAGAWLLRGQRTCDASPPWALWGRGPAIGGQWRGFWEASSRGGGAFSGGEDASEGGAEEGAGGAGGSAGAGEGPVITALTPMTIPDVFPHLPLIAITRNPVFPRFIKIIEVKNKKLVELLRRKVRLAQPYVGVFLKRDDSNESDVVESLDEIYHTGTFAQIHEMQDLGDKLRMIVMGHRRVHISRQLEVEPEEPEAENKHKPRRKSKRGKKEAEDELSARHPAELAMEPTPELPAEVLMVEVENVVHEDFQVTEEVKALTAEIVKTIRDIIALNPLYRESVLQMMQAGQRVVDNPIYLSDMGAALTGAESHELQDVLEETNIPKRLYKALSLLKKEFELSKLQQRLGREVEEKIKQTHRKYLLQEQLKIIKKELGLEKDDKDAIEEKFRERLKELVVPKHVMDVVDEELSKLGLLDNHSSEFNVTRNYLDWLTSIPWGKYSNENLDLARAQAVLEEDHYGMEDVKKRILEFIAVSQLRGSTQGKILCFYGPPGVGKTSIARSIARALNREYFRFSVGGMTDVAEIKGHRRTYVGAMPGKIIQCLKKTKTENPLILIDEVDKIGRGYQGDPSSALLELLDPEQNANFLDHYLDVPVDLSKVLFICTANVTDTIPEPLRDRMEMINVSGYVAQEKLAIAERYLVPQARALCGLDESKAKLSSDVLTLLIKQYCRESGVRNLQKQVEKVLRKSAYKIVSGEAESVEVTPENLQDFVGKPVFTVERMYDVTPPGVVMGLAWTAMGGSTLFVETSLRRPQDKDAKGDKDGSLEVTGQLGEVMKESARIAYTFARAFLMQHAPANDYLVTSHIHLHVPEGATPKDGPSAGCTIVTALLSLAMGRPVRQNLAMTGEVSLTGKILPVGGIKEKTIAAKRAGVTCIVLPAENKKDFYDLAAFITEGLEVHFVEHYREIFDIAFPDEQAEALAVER
UniProt Q9C0E8: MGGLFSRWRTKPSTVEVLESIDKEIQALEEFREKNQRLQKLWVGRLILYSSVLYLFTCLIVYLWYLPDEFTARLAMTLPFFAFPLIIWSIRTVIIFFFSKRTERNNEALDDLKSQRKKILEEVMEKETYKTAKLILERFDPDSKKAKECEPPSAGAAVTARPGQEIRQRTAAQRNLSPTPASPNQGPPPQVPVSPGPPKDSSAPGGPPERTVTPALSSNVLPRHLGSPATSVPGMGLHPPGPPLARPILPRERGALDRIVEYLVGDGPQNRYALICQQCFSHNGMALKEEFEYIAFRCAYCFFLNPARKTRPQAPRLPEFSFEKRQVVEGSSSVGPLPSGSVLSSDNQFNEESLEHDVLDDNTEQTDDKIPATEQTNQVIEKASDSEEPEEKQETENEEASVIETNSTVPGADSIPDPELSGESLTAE

Legend:
Assay in all cases: log2 fold change, soluble protein after heating vs DMSO (PISA); higher = thermal stabilisation; K562 cells, 10 uM, 30 min; active = over 0.2 and 3.5 SD of the protein, either way, in both replicates (recomputed)
[1] = compound: CC1=C(C=C(C=C1)NC(=O)C2=CC(=CC=C2)C(C)(C)C#N)NC3=CC4=C(C=C3)N=CN(C4=O)C
Method in brief: (§1)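 K562 cells at 2×10^6 cells/mL were treated for 30 min with 10 μM compound, and aliquots were heated for 3 min over 48°C-58°C before pooling. Extraction used PBS with 0.5% NP-40 at 4°C, and soluble protein was the supernatant after 21,000xg for 90 min, measured by TMTpro 16plex LC-MS/MS with channel sums equalised. Thermal stability values, relative to control samples and from duplicates, are log2 fold changes.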

[2] = compound: CC1=C(C=C(C=C1)NC(=O)C2=CC(=CC=C2)N(C)C)NC(=O)C3=CC=C(C=C3)O
Method in brief: as §1

[3] = compound: CC1=CC=C(C=C1)SC2=C3C=C(SC3=CN=C2)C(=O)N
Method in brief: as §1

[4] = compound: CC1=NC(=CC=C1)C2=C(N=C(N2)C(C)(C)C)C3=CC4=NC=CN=C4C=C3
Method in brief: as §1

Nexturastat A = compound: CCCCN(Cc1ccc(C(=O)NO)cc1)C(=O)Nc1ccccc1 [Nexturastat A]
Method in brief: as §1

vemurafenib = compound: CCCS(=O)(=O)Nc1ccc(F)c(C(=O)c2c[nH]c3ncc(-c4ccc(Cl)cc4)cc23)c1F [vemurafenib]
Method in brief: as §1

[5] = compound: CCCS(=O)(=O)Nc1ccc(F)c(C(=O)c2c[nH]c3ncc(Cl)cc23)c1F
Method in brief: as §1

[6] = compound: CCCc1cc(C)[nH]c(=O)c1CNC(=O)c1cc(-c2ccnc(N3CCN(C)CC3)c2)cc2c1cnn2C(C)C
Method in brief: as §1

givinostat = compound: CCN(CC)Cc1ccc2cc(COC(=O)Nc3ccc(C(=O)NO)cc3)ccc2c1 [givinostat]
Method in brief: as §1

barasertib = compound: CCN(CCCOc1ccc2c(Nc3cc(CC(=O)Nc4cccc(F)c4)[nH]n3)ncnc2c1)CCOP(=O)(O)O [barasertib]
Method in brief: as §1

[7] = compound: CC[C@@H]1C(=O)N(C)c2cnc(Nc3ccc(C(=O)NC4CCN(C)CC4)cc3OC)nc2N1C1CCCC1
Method in brief: as §1

volasertib = compound: CC[C@@H]1C(=O)N(C)c2cnc(Nc3ccc(C(=O)N[C@H]4CC[C@H](N5CCN(CC6CC6)CC5)CC4)cc3OC)nc2N1C(C)C [volasertib]
Method in brief: as §1

[8] = compound: CC[C@H](C)N1C=C(C2=C(C=C(C=C21)C3=CN=C(C=C3)N4CCNCC4)C(=O)NCC5=C(C=C(NC5=O)C)C)C
Method in brief: as §1

epoxomicin = compound: CC[C@H](C)[C@@H](C(=O)N[C@@H]([C@@H](C)O)C(=O)N[C@@H](CC(C)C)C(=O)[C@]1(CO1)C)NC(=O)[C@H]([C@@H](C)CC)N(C)C(=O)C [epoxomicin]
Method in brief: as §1

[9] = compound: CCn1c(C(=O)N(C2CC2)C2CC2)cc2c3c(ncn3C)c(Nc3cc(C)n(C)n3)nc21
Method in brief: as §1

[10] = compound: CCn1cc(-c2ccnc3[nH]c(-c4cccc(CN(C)C)c4)cc23)c(-c2ccc(NC(=O)N(C)C)cc2)n1
Method in brief: as §1

[11] = compound: CN(C)CC(=O)Nc1ccc2[nH]c(=O)c3ccccc3c2c1
Method in brief: as §1

rosiglitazone = compound: CN(CCOC1=CC=C(C=C1)C[C@H]2C(=O)NC(=O)S2)C3=CC=CC=N3 (racemic) [rosiglitazone]
Method in brief: as §1

[12] = compound: CN1C2=C(C3=C1C(=O)N(N=C3)CC4=CC(=CC=C4)N)SC(=C2)S(=O)C
Method in brief: as §1

[13] = compound: CN1CCC(CNc2ccc3ncc(-c4cccc(OC(F)(F)F)c4)n3n2)CC1
Method in brief: as §1

Target | log2 fold change [1] | log2 fold change [2] | log2 fold change [3] | log2 fold change [4] | log2 fold change (Nexturastat A) | log2 fold change (vemurafenib) | log2 fold change [5] | log2 fold change [6] | log2 fold change (givinostat) | log2 fold change (barasertib) | log2 fold change [7] | log2 fold change (volasertib) | log2 fold change [8] | log2 fold change (epoxomicin) | log2 fold change [9] | log2 fold change [10] | log2 fold change [11] | log2 fold change (rosiglitazone) | log2 fold change [12] | log2 fold change [13]
LRRC40 (UniProt Q9H9A6) | inactive: 0.071 | inactive: -0.005 | inactive: 0.012 | inactive: 0.02 | inactive: 0.006 | inactive: 0.065 | inactive: 0.098 | inactive: 0.053 | inactive: 0.122 | inactive: 0.074 | inactive: -0.057 | inactive: -0.314 | inactive: 0.132 | inactive: -0.002 | inactive: -0.055 | inactive: -0.087 | inactive: 0.097 | inactive: 0.053 | inactive: 0.047 | inactive: -0.206
LAMP1 (UniProt P11279) | inactive: -0.013 | inactive: -0.034 | inactive: -0.005 | inactive: -0.005 | inactive: -0.076 | inactive: 0.009 | inactive: 0.007 | inactive: -0.04 | inactive: 0.023 | inactive: -0.011 | inactive: -0.006 | inactive: -0.009 | inactive: -0.057 | inactive: -0.029 | inactive: 0.01 | inactive: -0.015 | inactive: -0.003 | inactive: -0.009 | inactive: -0.042 | inactive: 0.089
LIN28B (UniProt Q6ZN17) | inactive: -0.024 | inactive: 0.016 | inactive: -0.046 | inactive: -0.065 | inactive: 0.163 | inactive: -0.013 | inactive: 0.001 | inactive: 0.009 | inactive: -0.012 | inactive: -0.017 | inactive: 0.131 | inactive: 0.096 | inactive: 0.02 | inactive: -0.139 | inactive: -0.074 | inactive: 0.046 | inactive: -0.066 | inactive: -0.063 | inactive: 0.135 | inactive: 0.077
LACTB2 (UniProt Q53H82) | inactive: 0.024 | inactive: -0.009 | inactive: 0.028 | inactive: 0.039 | inactive: -0.019 | inactive: -0.046 | inactive: -0.056 | inactive: -0.026 | inactive: -0.118 | inactive: 0.007 | inactive: -0.006 | inactive: 0.056 | inactive: 0.007 | inactive: 0.019 | inactive: 0.007 | inactive: -0.01 | inactive: -0.026 | inactive: 0.01 | inactive: 0.008 | inactive: 0.015
LRRC59 (UniProt Q96AG4) | inactive: 0.019 | inactive: -0.008 | inactive: 0.031 | inactive: 0.034 | inactive: -0.025 | inactive: -0.012 | inactive: -0.033 | inactive: -0.01 | inactive: -0.016 | inactive: -0.006 | inactive: 0.016 | inactive: 0.07 | inactive: -0.018 | inactive: -0.013 | inactive: 0.01 | inactive: 0.011 | inactive: 0.007 | inactive: 0.028 | inactive: -0.08 | inactive: 0.055
LCMT1 (UniProt Q9UIC8) | inactive: -0.009 | inactive: 0.017 | inactive: -0.007 | inactive: 0.028 | inactive: -0.047 | inactive: 0.099 | inactive: 0.014 | inactive: 0.015 | inactive: -0.053 | inactive: 0.005 | inactive: -0.014 | inactive: -0.001 | inactive: 0.011 | inactive: 0.001 | inactive: 0.003 | inactive: -0.106 | inactive: 0.005 | inactive: 0.033 | inactive: -0.05 | inactive: 0.015
LCP1 (UniProt P13796) | inactive: 0.009 | inactive: 0.008 | inactive: -0.024 | inactive: 0.003 | inactive: -0.046 | inactive: -0.011 | inactive: -0.049 | inactive: -0.021 | inactive: -0.026 | inactive: 0 | inactive: 0.011 | inactive: 0.027 | inactive: -0.029 | inactive: -0.007 | inactive: 0.032 | inactive: -0.007 | inactive: -0.018 | inactive: 0.005 | inactive: -0.025 | inactive: -0.006
LLPH (UniProt Q9BRT6) | inactive: 0.047 | inactive: -0.006 | inactive: -0.103 | inactive: -0.269 | inactive: 0.182 | inactive: -0.186 | inactive: 0.054 | inactive: 0.212 | inactive: 0.058 | inactive: -0.217 | inactive: 0.288 | inactive: 0.253 | inactive: -0.028 | inactive: -0.371 | inactive: -0.021 | inactive: 0.424 | inactive: -0.238 | inactive: -0.199 | inactive: 0.467 | inactive: 0.547
LDAH isoform 2 (UniProt Q9H6V9) | inactive: -0.026 | inactive: -0.008 | inactive: 0 | inactive: -0.024 | inactive: 0.032 | inactive: 0.044 | inactive: 0.024 | inactive: -0.04 | inactive: 0.059 | inactive: 0.031 | inactive: -0.062 | active: -0.374 | inactive: 0.007 | inactive: -0.052 | – | inactive: -0.148 | inactive: 0.049 | – | inactive: -0.137 | active: -0.688
LRPPRC (UniProt P42704) | inactive: 0.264 | inactive: -0.054 | inactive: 0.222 | inactive: 0.336 | inactive: 0.282 | inactive: 0.227 | inactive: 0.264 | inactive: -0.005 | inactive: 0.417 | inactive: 0.369 | inactive: -0.413 | inactive: -0.801 | inactive: 0.161 | inactive: 0.277 | – | inactive: 0.01 | inactive: 0.334 | – | inactive: 0.177 | inactive: -0.323
LDLR (UniProt P01130) | inactive: -0.063 | inactive: 0.006 | inactive: 0.006 | inactive: 0.01 | inactive: 0 | inactive: -0.022 | inactive: -0.073 | inactive: -0.018 | inactive: -0.03 | inactive: 0.019 | inactive: -0.135 | inactive: -0.176 | inactive: -0.028 | inactive: 0.031 | – | inactive: 0.058 | inactive: -0.059 | – | inactive: -0.004 | inactive: 0.064
LRRC47 (UniProt Q8N1G4) | inactive: 0.016 | inactive: 0.002 | inactive: -0.001 | inactive: 0.08 | inactive: -0.066 | inactive: 0.042 | inactive: 0.022 | inactive: 0.013 | inactive: -0.023 | inactive: 0 | inactive: 0 | inactive: 0.027 | inactive: 0.01 | inactive: 0.025 | inactive: -0.004 | inactive: -0.068 | inactive: 0.009 | inactive: 0.02 | inactive: -0.079 | inactive: 0.01
LMBRD2 (UniProt Q68DH5) | inactive: -0.038 | inactive: 0.016 | inactive: 0.043 | inactive: 0 | inactive: 0.019 | inactive: -0.052 | inactive: -0.03 | inactive: 0.038 | inactive: 0.043 | inactive: 0.011 | inactive: -0.063 | inactive: -0.042 | inactive: -0.012 | inactive: 0.081 | – | inactive: -0.018 | inactive: 0.002 | – | inactive: -0.008 | active: -0.362
LONP1 (UniProt P36776) | inactive: 0.011 | inactive: 0.038 | inactive: 0.012 | inactive: 0.028 | inactive: -0.055 | inactive: -0.011 | inactive: -0.009 | inactive: -0.01 | inactive: -0.007 | inactive: -0.021 | inactive: 0.028 | inactive: 0.061 | inactive: -0.004 | inactive: 0.003 | inactive: 0.005 | inactive: -0.011 | inactive: -0.011 | inactive: 0.002 | inactive: -0.036 | inactive: 0.081
LNPK (UniProt Q9C0E8) | inactive: -0.011 | inactive: 0.01 | inactive: -0.038 | inactive: 0.016 | inactive: -0.023 | inactive: -0.042 | inactive: -0.027 | inactive: -0.028 | inactive: -0.018 | inactive: 0.012 | inactive: 0.02 | inactive: 0.024 | inactive: -0.038 | inactive: -0.007 | – | inactive: 0.018 | inactive: -0.042 | – | inactive: 0.012 | inactive: 0.059
LDHA isoform 3 (UniProt P00338) | inactive: -0.006 | inactive: 0.015 | inactive: 0.024 | inactive: 0.008 | inactive: -0.077 | inactive: 0.013 | inactive: 0.03 | inactive: -0.015 | inactive: -0.008 | inactive: -0.015 | inactive: 0.003 | inactive: 0.055 | inactive: -0.012 | inactive: 0.002 | inactive: 0.038 | inactive: -0.005 | inactive: -0.014 | inactive: 0.004 | inactive: -0.081 | inactive: -0.009

Two entries drawn at random from those above, as already listed:
Target | log2 fold change [1] | log2 fold change [2] | log2 fold change [3] | log2 fold change [4] | log2 fold change (Nexturastat A) | log2 fold change (vemurafenib) | log2 fold change [5] | log2 fold change [6] | log2 fold change (givinostat) | log2 fold change (barasertib) | log2 fold change [7] | log2 fold change (volasertib) | log2 fold change [8] | log2 fold change (epoxomicin) | log2 fold change [9] | log2 fold change [10] | log2 fold change [11] | log2 fold change (rosiglitazone) | log2 fold change [12] | log2 fold change [13]
LMBRD2 (UniProt Q68DH5) | inactive: -0.038 | inactive: 0.016 | inactive: 0.043 | inactive: 0 | inactive: 0.019 | inactive: -0.052 | inactive: -0.03 | inactive: 0.038 | inactive: 0.043 | inactive: 0.011 | inactive: -0.063 | inactive: -0.042 | inactive: -0.012 | inactive: 0.081 | – | inactive: -0.018 | inactive: 0.002 | – | inactive: -0.008 | active: -0.362
LDLR (UniProt P01130) | inactive: -0.063 | inactive: 0.006 | inactive: 0.006 | inactive: 0.01 | inactive: 0 | inactive: -0.022 | inactive: -0.073 | inactive: -0.018 | inactive: -0.03 | inactive: 0.019 | inactive: -0.135 | inactive: -0.176 | inactive: -0.028 | inactive: 0.031 | – | inactive: 0.058 | inactive: -0.059 | – | inactive: -0.004 | inactive: 0.064
